# In PubChem BioAssay AID2685 (National Center for Advancing Translational Sciences (NCATS), 2010):
# “And” between values parts separate entries of the source, which are not always exact repeats. Equal values may be shown once. This is one part of the list. These are further read-outs of the screen, such as a control signal, another cell line or another target. No call is given for them. Most of these compounds were active or inconclusive in the main read-out, so they are no random draw. The note in brackets gives the kind of curve behind each potency; many fits are weak. Where a SMILES comes first, the peptide text is derived from it. [ ]: non-standard residue; d: D form. The star is where a group is joined. ξ: configuration not given here. Boc = CC(C)(C)OC(=O)*; ξP = O=C(O)C1CCCN1
# Assay: qHTS Assay for Lipid Storage Modulators in Drosophila S3 Cells;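 as to cell number change: cells counted by Cell Tracker Red CMTPX staining in the red channel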
# Conditions: BODIPY lipid droplet fluorescence, 18-24 h; for cell number change: measured here: cell count max response, cells fed with added oleic acid
# Procedure, shortened: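 Drosophila S3 cells loaded with oleic acid (400 uM, as added) and compounds at several concentrations; lipid droplets imaged by 488-nm laser-scanning cytometry, 500–530 nm intensity and object ratio to cell channel. Percent activity normalized to 20 uM Triacsin C.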
# [1] = measured here: cell number channel AC50, cells fed with added oleic acid
# [2] = measured here: lipid fluorescence (Fed channel) AC50, cells fed with added oleic acid
SMILES,cell number change,AC50 [1],AC50 [2]
O=C(NC1CC2CCC1C2)C1CCN(S(=O)(=O)c2ccc(-c3nn[nH]n3)cc2)CC1 (stereo not given),6.31%,"5.8 µM [rising, single point]",
O=C(COC(=O)c1ccc2c(c1)C(=O)N(c1cccc3ncccc13)C2=O)c1ccc(Cl)cc1,-2.08%,"0.146 µM [falling, full curve]",
COc1ccc(S(=O)(=O)Nc2ccccn2)cc1,26%,,
CSc1ncccc1C(=O)OCc1ccc(COC(=O)c2cccnc2SC)cc1,-48.9%,"29.1 µM [falling, single point]","6.51 µM [falling, partial curve, poor fit]"
Cc1ccsc1C(=O)OCC(=O)NCc1ccc(Cl)cc1,-13.1%,"1.16 µM [rising, partial curve]","0.411 µM [falling, single point]"
CC1CC(=O)Nc2ccccc2N1C(=O)COc1ccc2cc(Br)ccc2c1 (stereo not given),27.7%,,"29.1 µM [rising, single point]"
CC(=O)Nc1ccc(Br)c2ccccc12,-53%,,
O=C(COC(=O)c1ccc(F)cc1)NCCc1ccc(F)cc1,-28.4%,"2.91 µM [rising, single point]","2.31 µM [falling, partial curve]"
COC(=O)c1ccc(N2CCOCC2)c(NC(=O)c2cccnc2)c1,34.2%,,"25.1 µM [rising, single point]"
O=S1(=O)CCOC[C@H](CC2CCCCC2)N1Cc1ccccc1F,23.9%,,"29.1 µM [rising, single point]"
COCCNC(=O)CN(C(=O)CCC(=O)Nc1ccccn1)c1ccccc1F,-6.18%,"2.91 µM [rising, single point]",
CCCC(=O)Nc1cc(C)c(NC(=O)c2ccncc2)cn1,16.3%,,"29.1 µM [rising, single point]"
COc1ccc2[nH]c(C(=O)N3CCC(n4nccc4NC(=O)C4CC4)CC3)c(C)c2c1,-12.7%,,
Fc1cccc(Nc2nc3ccccc3n3nnnc23)c1,2.92%,,"0.164 µM [rising, full curve, poor fit]"
COc1ccc(-c2cn(CCN)c(-c3ccncc3)n2)cc1,-3.5%,,
COC(=O)CNC(=O)C1CCCN1C(=O)CNC(=O)OC(C)(C)C (stereo not drawn) (Boc-Gly-[ξP]-Gly-OMe),-0.392%,,
O=C(CCC(=O)N1CCCc2ccccc21)N1CCN(S(=O)(=O)c2ccccc2)CC1,-0.0874%,,"6.51 µM [rising, single point]"
Cc1ccc(N(CC(O)COCc2ccco2)S(=O)(=O)c2ccc(C)cc2)cc1 (stereo not given),-0.738%,"0.731 µM [falling, single point]","14.6 µM [falling, partial curve, poor fit]"
Cn1ccc(C(=O)Nc2ccc(Br)cc2Br)n1,-3.08%,,"4.61 µM [falling, single point]"
CCN(CC)C(=O)c1ccc2c(=O)n(Cc3cccc(Br)c3)c(=S)[nH]c2c1,,"2.91 µM [rising, single point]",
Cc1cccc(Nc2nc(N)c([N+](=O)[O-])c(N3CCC(C)CC3)n2)c1,-53.5%,,"4.11 µM [falling, partial curve]"

# Molecules shown so far with an NH in an aromatic ring (three):
SMILES,cell number change,AC50 [1],AC50 [2]
O=C(NC1CC2CCC1C2)C1CCN(S(=O)(=O)c2ccc(-c3nn[nH]n3)cc2)CC1 (stereo not given),6.31%,"5.8 µM [rising, single point]",
COc1ccc2[nH]c(C(=O)N3CCC(n4nccc4NC(=O)C4CC4)CC3)c(C)c2c1,-12.7%,,
CCN(CC)C(=O)c1ccc2c(=O)n(Cc3cccc(Br)c3)c(=S)[nH]c2c1,,"2.91 µM [rising, single point]",

# The list goes on:

SMILES,cell number change,AC50 [1],AC50 [2]
O=C(C1CCN(c2nnc(-n3cccc3)s2)CC1)N1CCN(c2cccc(C(F)(F)F)c2)CC1,-19.7%,,"18.4 µM [rising, single point]"
Cc1cc(C)c2cc(C(=O)Nc3ccc4c(c3)OCO4)[nH]c2c1,,"1.64 µM [rising, partial curve]","6.51 µM [rising, single point]"
Cc1cccc(NC(=O)NCCN2C(=O)C3C4C=CC(C4)C3C2=O)c1 (stereo not given),33.8%,"29.1 µM [rising, single point]",
Cc1c(NC(=O)C(C)Sc2ccccc2)c(=O)n(-c2ccccc2)n1C (stereo not given),6.41%,,"29.1 µM [rising, single point]"
COc1ccc(-c2cc(C(=O)N3CCN(c4ncccn4)CC3)c3ccccc3n2)cc1,-8.41%,,"0.00461 µM [rising, full curve, poor fit]"
COc1ccc2[nH]c3c(NCCCOC(C)C)ncnc3c2c1,-25.2%,,"0.0259 µM [falling, full curve, poor fit]"
CCOC(=O)C1=C(C)NC(=O)C(C(N)=O)C12CCCC2 (stereo not given),-54.7%,"3.66 µM [falling, full curve]","3.66 µM [falling, full curve]"
CC(NC(=O)c1cccc(OC2CCN(C(=O)C3CC3)CC2)c1)c1ccc(F)cc1 (stereo not given),,,"0.58 µM [falling, single point]"
O=C(NC(Nc1ccccn1)C(Cl)(Cl)Cl)c1ccccc1 (stereo not given),-38.5%,,
CC1CCCCN1C(=O)c1cccc(NC2=C(Cl)C(=O)N(Cc3ccccc3)C2=O)c1 (stereo not given),-20.7%,,"0.82 µM [rising, full curve, poor fit]"
CCCCOc1ccc(/C=N/NC(=O)c2csc(C)c2C)cc1,24.1%,,
Nc1ccccc1N=Nc1ccccc1N,-17.7%,,
Cn1cc(CN2CCC(C(=O)Nc3cccc(-c4cscn4)c3)CC2)cn1,13.9%,,"29.1 µM [rising, single point]"
Cc1cccc(NCc2cc(Cl)ccc2O)n1,-49.4%,"23.1 µM [falling, partial curve]","23.1 µM [falling, single point]"
O=C(COC(=O)c1c[nH]c2ccccc12)Nc1ccc(F)cc1,-28.3%,,"20.6 µM [falling, single point]"
COc1cc(C=O)cc(Br)c1OCC(N)=O,-8.94%,,"25.9 µM [rising, single point]"
Cn1nc(-c2ccccc2)c(C(O)c2ccccc2C(F)(F)F)c1Cl (stereo not given),-89.8%,"18.4 µM [falling, partial curve]","29.1 µM [falling, single point]"
O=C(CNC(=O)c1ccc(S(=O)(=O)N2CCCC2)cc1)N/N=C/c1c(Cl)cccc1Cl,14.1%,,"29.1 µM [rising, single point]"
Cc1ccccc1OCC(=O)Nc1ccc2c(c1)ncn2C,-17.1%,,"0.13 µM [falling, full curve, poor fit]"
Fc1ccc(C2=NN(c3ccccc3)C(c3ccco3)C2)cc1 (stereo not given),7.4%,,
COc1cc(C(=O)Nc2cccc(-c3nc4ncccc4o3)c2C)cc(OC)c1OC,12.4%,"4.11 µM [rising, single point]","0.58 µM [rising, full curve, poor fit]"

SMILES,cell number change,AC50 [1],AC50 [2]
C/C(=N\NC(=O)c1cc(-c2ccc(C)s2)[nH]n1)c1ccncc1,-5.88%,,
CCC(C)NC(=O)c1ccc2c(Cl)c3c(nc2c1)CCC3 (stereo not given),-24.7%,,"0.092 µM [falling, full curve, poor fit]"
O=C(c1ccc(N2CCOCC2)c([N+](=O)[O-])c1)N1CCN(Cc2ccccc2)CC1,-12.8%,,
COc1ccc(OC)c(NC(=O)C2CCCN(S(=O)(=O)c3cccc4cccnc34)C2)c1 (stereo not given),,,"0.00517 µM [rising, full curve, poor fit]"
Cc1ccc(N=C2NC(=O)/C(=C/c3cn(C)c4ccccc34)S2)cc1C,50%,"1.64 µM [rising, full curve]","4.11 µM [rising, partial curve]"
O=c1c2nnn(-c3ccc(Cl)cc3)c2ncn1Cc1ccccn1,37.7%,"18.4 µM [rising, single point]","29.1 µM [rising, single point]"
c1cncc(Nc2nc(-c3cccnc3)cs2)c1,-13.3%,,"18.4 µM [rising, single point]"
CC1(C)OC(=O)C=C(CC2NS(=O)(=O)OC3CCCCC23)O1 (stereo not given),7.78%,,
Cc1ccccc1Oc1ncnc(N)c1[N+](=O)[O-],-11.3%,"6.51 µM [falling, single point]","6.51 µM [falling, partial curve]"
Cc1cccc(OCc2nnc(SCC(=O)NCC3CCCO3)n2C)c1 (stereo not given),-11.9%,"0.164 µM [falling, full curve, poor fit]","29.1 µM [rising, single point]"
Oc1ccc(COCc2ccccc2)c2cccnc12,3.24% and -44.8%,"18.4 µM [falling, single point]","14.6 µM [falling, partial curve]"
O=C(c1ccc(CSc2ccccc2)cc1)N1CCN(c2ccccc2)CC1,11.4%,,"0.82 µM [falling, single point]"
CC(C)CC(=O)N1CCN(C(=O)c2cccc(F)c2)CC1,-15.9%,,"23.1 µM [rising, single point]"
CCCn1c(SCN2C(=O)c3ccccc3C2=O)nc2cc(Cl)ccc2c1=O,-17.5%,,"6.51 µM [rising, single point]"
COc1ccc(-c2ccc(=O)n(CC(=O)NCC3COCCO3)n2)cc1 (stereo not given),-4.82%,,
Cc1ccc(SCC(=O)Nc2ccc3c(c2)OCCO3)cc1,,,"0.326 µM [falling, full curve]"
FC(F)(F)c1ccc(Cl)c(NC2=NCCCCC2)c1,9.72%,,"6.51 µM [falling, single point]"
CCOc1cc(-c2sc(Nc3cc(C)ccc3OC)n[n+]2-c2ccccc2)ccc1OC,-37.7%,,"18.4 µM [falling, single point]"
Cc1cc(S(=O)(=O)N2CCCC2)ccc1OCC(=O)N1CCC(C(N)=O)CC1,-13.2%,,"4.11 µM [falling, single point]"
C/C(=C\C(=O)Nc1nccs1)c1ccccc1,-9.89%,,"14.6 µM [rising, partial curve]"
